# According to the supplement of paper PMC10338343:
# ± gives the standard deviation. The entries are a selection whose mix differs from that of the whole data set. Many entries were measured with a wide error.
# Tested on: EfPiwi piRISC loaded with piRNA #1 (26 nt)
# Assay: pre-steady-state target cleavage rate (min^-1); guide: piRNA #1 5'p-UGAGGUAGUAGGUUGUAUAGUAUCCA; MIWI and MILI are mouse PIWI proteins and EfPiwi is from a freshwater sponge; tags in brackets are library labels; higher = faster piRNA-guided slicing of the target
# Details: auxiliary factor: 500 nM Ephydatia muelleri Gtsf1
# Method in brief: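 Using HEPES–potassium acetate buffer at 33 °C, 1 nM active affinity-purified piRISC with a single synthetic guide was mixed with 0.1 nM transcribed, DNA-blocked target RNA library for 0–8 or 0–960 min, with or without 500 nM GTSF1 partner protein. Uncleaved targets were sequenced and normalised to depth and to weakly complementary targets, and three trials were pooled with k3 capped at 0.0001 min^-1. A burst-and-steady-state fit gave the pre-steady-state cleavage rate.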
row,Sequence,pre-steady-state target cleavage rate
1,GGAGACCAUACUAUGCAACCUACUACCUCA,0.0164 ± 0.0068
2,GGAGACCUAUGUAUACAACCUACAUACCUCA,0.000953 ± 0.0079
3,GGAGACCUUACUAUACAACCUUCUACCACA,0.00207 ± 0.0036
4,GGAGACCUUACUAUAGAACCUACUUCCUCA,0.00159 ± 0.0039
5,GGAGACCUAUGUAUACAAGCUACUUCCUCA,0.00121 ± 0.0044
6,GGAGACCUAUCUAUACAACCUACUUCCUCA,0.00328 ± 0.0036
7,GGAGUGGAUUCUAUACAACCUACAACCUCA,0.00183 ± 0.0023
8,GGAGAGGUUAGUAUACAACCUACUACCUCA,0.00354 ± 0.0036
9,GGAGACCAUACUAUUCAACCUACAACCUCA,0.00131 ± 0.0049
10,GGAGACCUAUCUUUACAAGCUACUACCUCA,0.0024 ± 0.0047
11,GGAGACGAUACUAUACAAGCUACUACGUCA,0.00352 ± 0.0014
12,GGAGACCUAUGUAUACAACCUACUAGCCUCA,0.00109 ± 0.0083
13,GGAGACCUAACUAUACAACCUACUUCCACA,0.00364 ± 0.0039
14,GGAGACCUAUGAUAUGUUCCUACUACCUCG [g2:g12:cont:t1G],0.000292 ± 0.014
15,GGAGACGAUACUAUACAAGCUACUUCCUCA,0.00404 ± 0.0021
16,GGAGAGGAUACAAUUCAACCUACUACCUCA,0.00331 ± 0.0043
17,GGAGACCUAACUAUACAACCUACUAUCCUCA,0.00341 ± 0.0035
18,GGAGACGAAACUAUACAACCUACUUCCUCA,0.00318 ± 0.0023
19,GGAGAGGAUACUAUUCAACCUACUUCCUCA,0.00313 ± 0.0024
20,GGAGACGAUACUAUUCAACCUACUAGCUCA,0.0042 ± 0.002

row,Sequence,pre-steady-state target cleavage rate
1,GGAGACCUAUCUUUACAACCUAGUACCUCA,0.00302 ± 0.0036
2,GGAGACGAUAGCUAUACAACCUACUACCUCA,0.0112 ± 0.0049
3,GGAGAGGAUACUAUUCAACCUACUACGUCA,0.00309 ± 0.0023
4,GGAGACGAUACUAUACAACCAAGUACCUCA,0.00215 ± 0.0019
5,GGAGACCAUUCUAUACAACGUACUACCUCA,0.00402 ± 0.0025
6,GGAGACCUUACUAUACUACCUACUACGUCA,0.000415 ± 0.0057
7,GGAGACCAUACUAUUCAACCAACUACCUCA,0.00225 ± 0.0042
8,GGAGACCUAACAAUACAACCUACUACCUGA,0.00336 ± 0.0037
9,GGAGACCAUAGUAUACAACCUACUUCCUCA,0.00272 ± 0.003
10,GGAGACCUUAGUAUACAACCUACUUCCUCA,0.00151 ± 0.0031
11,GGAGACCUAUGUAUACAACCUACAACCUCA,0.00161 ± 0.0047
12,GGAGACCUAUGAAUACAACCUCCUACCUCA,0.00117 ± 0.0041
13,GGAGAGGAUACUAUACAACGUACUACCUCA,0.0053 ± 0.0021
14,GGAGACCAUUCUAUACAACCUACUACCUGA,0.00652 ± 0.0034
15,GGAGACCUAACUAAACAACCUAGUACCUCA,0.00226 ± 0.0038
16,GGAGACCUAUGAUAUGUUGCUACUACCUACA,0.000346 ± 0.0066
17,GGAGUGGAUACUAUACAACCUACUACCUCA [g2:g26:cont:t1A],0.176 ± 0.056
18,GGAGACCUAUGUAUAGAACCUACUACGUCA,0.000985 ± 0.0069
19,GGAGACGAUACUAUCACAACCUACUACCUCA,0.0153 ± 0.0062
20,GGAGACCUAUCUAUACAACGUACUAGCUCA,0.0017 ± 0.0059

# Two consecutive entries out of the list so far, for reference:
row,Sequence,pre-steady-state target cleavage rate
2,GGAGACGAUAGCUAUACAACCUACUACCUCA,0.0112 ± 0.0049
3,GGAGAGGAUACUAUUCAACCUACUACGUCA,0.00309 ± 0.0023
